The match of structure and compound is tentative.
Target: CXCR7 (Homo sapiens, UniProt P25106)
Test: PathHunter CHO-K1 CXCR7 b-arrestin recruitment assay (CXCR7 agonistic activity)
Settings: read-out: CXCR7 EC50, PathHunter CHO-K1 CXCR7 b-arrestin cell line
Experimental: The CXCl12 receptor and CXCR7 agonistic activities of the compounds of formula (I) are determined in accordance with the following experimental method.
The assay is using the PathHunter™ CHO-K1 CXCR7 b-arrestin cell line from DiscoverX. The system is based on the Enzyme Fragment Complementation Technology. Two complementing fragments of the b-galactosidase enzyme are expressed within stably transfected cells. The larger portion of b-gal, termed EA for Enzyme Acceptor, is fused to the C-terminus of b-arrestin 2. The smaller fragment, termed ProLink™ tag, is fused to CXCR7 at the C-terminus. Upon activation, b-arrestin is recruited which forces the interaction of ProLink and EA, allowing complementation of the two fragments of b-gal and the formation of a functional enzyme which is capable of hydrolysing the substrate and generating a chemiluminescent signal.
CHO-K1 CXCR7 b-arrestin cells are detached from culture dishes with a cell dissociation buffer (Invitrogen, #13151-014) and collected in growing medium (F12 HAMS 90% (v/v)/FCS 10% (v/v), Penicillin/streptomycin 1% (v/v)). 5000 cells per well (in 20 μl) are seeded in a 384 well plate (white-walled, clear bottom; BD Falcon #353274). […] Luminescent signal is read in a microplate reader (FLUOstar Optima, bmg). The calculated EC50 values may fluctuate depending on the daily cellular assay performance. […]

The chains behind the UniProt entries cited, without tags or fusion partners.
UniProt P25106, whole entry: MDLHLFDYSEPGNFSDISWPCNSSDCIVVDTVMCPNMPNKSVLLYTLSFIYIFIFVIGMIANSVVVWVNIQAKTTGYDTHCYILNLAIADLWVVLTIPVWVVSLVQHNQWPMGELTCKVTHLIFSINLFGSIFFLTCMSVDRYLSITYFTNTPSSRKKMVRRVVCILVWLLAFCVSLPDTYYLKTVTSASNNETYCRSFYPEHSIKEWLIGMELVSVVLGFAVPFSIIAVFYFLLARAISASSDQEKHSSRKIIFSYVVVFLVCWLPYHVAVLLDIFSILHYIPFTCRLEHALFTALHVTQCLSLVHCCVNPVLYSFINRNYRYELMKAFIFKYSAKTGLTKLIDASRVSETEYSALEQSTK
UniProt P32121, whole entry partner: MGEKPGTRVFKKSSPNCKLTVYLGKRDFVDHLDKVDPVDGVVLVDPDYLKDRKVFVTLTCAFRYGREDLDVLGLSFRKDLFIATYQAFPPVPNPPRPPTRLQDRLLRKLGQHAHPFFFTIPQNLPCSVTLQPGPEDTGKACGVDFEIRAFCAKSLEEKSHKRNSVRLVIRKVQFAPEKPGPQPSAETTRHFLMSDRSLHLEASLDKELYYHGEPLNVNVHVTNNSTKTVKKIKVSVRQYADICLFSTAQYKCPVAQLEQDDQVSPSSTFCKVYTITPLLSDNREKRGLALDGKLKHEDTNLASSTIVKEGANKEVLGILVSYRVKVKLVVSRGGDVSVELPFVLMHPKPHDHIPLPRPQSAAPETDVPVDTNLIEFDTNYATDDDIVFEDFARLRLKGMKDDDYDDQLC

Structure (SMILES): CN(CCN(Cc1ccccc1C(F)(F)F)C(=O)CNc1cccc2c1CN(CC1CC1)CC2)C1CC1
- EC50: 15 nM

Structure (SMILES): CN(C)CCN(Cc1ccccc1C(F)(F)F)C(=O)CNc1cccc2c1CN(CC1CC1)CC2 [compound 475]
- EC50: 5 nM
